According to publication PMC5389439:
Results are given in words; binding and its absence hold for the method and conditions named. Binding seen in cells or lysates may run through a third protein. Some results given as binding are weak or reduced against the parent protein; the word gives no strength. For part of these data: Where a sequence is shown, tags or fusion partners need not be part of it.

Amino acid sequences for entries named in this document (tags omitted).
UniProt Q62296: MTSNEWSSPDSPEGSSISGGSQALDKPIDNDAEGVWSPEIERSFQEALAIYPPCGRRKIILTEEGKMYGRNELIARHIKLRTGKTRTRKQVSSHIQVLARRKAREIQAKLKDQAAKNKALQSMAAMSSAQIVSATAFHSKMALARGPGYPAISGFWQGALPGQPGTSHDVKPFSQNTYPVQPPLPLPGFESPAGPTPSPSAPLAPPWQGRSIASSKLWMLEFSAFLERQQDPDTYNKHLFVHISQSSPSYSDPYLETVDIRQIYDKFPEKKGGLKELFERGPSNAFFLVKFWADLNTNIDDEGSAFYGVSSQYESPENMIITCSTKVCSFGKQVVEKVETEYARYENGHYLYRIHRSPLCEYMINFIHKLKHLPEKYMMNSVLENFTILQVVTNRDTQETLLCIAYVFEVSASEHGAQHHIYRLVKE
UniProt P46938: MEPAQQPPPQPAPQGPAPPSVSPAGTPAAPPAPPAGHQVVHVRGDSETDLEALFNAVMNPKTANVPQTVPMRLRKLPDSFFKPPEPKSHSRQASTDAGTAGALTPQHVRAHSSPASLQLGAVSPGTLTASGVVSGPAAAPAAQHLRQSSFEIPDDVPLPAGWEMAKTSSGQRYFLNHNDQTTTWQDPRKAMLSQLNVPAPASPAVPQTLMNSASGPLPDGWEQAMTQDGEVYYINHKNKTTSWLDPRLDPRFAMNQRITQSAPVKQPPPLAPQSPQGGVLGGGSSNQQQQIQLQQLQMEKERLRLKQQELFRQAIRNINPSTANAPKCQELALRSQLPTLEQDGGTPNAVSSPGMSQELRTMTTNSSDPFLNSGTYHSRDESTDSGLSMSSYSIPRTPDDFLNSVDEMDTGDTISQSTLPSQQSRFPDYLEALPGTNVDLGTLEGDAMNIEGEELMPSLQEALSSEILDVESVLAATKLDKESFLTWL
UniProt Q08943: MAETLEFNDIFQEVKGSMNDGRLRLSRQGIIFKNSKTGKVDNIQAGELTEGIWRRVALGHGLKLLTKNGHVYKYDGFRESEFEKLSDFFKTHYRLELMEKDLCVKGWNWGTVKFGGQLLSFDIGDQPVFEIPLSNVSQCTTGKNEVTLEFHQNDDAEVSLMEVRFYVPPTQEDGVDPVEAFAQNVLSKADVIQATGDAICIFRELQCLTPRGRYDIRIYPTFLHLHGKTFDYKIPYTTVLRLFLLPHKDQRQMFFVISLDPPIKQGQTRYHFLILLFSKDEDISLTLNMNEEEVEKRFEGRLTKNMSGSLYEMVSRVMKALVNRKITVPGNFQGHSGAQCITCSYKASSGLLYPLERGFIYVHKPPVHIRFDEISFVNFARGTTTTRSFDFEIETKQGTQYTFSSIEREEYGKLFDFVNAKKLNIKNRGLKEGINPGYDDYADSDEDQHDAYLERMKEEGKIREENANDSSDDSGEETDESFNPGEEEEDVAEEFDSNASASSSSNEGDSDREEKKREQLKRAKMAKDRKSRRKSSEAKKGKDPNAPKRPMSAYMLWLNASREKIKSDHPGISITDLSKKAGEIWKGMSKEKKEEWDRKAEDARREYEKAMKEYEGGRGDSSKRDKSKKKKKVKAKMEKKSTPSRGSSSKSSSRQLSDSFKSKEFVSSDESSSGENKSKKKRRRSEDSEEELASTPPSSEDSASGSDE

Experiments:
Test in all cases: co-IP; tagged proteins co-expressed in 293T cells; lysis buffer 10 mM HEPES pH 7.6, 250 mM NaCl, 0.1% NP40, 5 mM EDTA; IP with tag antibody and protein-G PLUS-agarose, 30 min at 4 °C; blot with tag antibodies; with or without co-expressed HA-Yap or Myc-NICD1
FLAG-mTead4 (mouse) = FLAG-mTead4 (mouse) (UniProt Q62296)
[1] = target: T1, GFP-SBNO1 (human Strawberry Notch 1, GFP-tagged) (human) (UniProt A3KN83)
T1 sequence: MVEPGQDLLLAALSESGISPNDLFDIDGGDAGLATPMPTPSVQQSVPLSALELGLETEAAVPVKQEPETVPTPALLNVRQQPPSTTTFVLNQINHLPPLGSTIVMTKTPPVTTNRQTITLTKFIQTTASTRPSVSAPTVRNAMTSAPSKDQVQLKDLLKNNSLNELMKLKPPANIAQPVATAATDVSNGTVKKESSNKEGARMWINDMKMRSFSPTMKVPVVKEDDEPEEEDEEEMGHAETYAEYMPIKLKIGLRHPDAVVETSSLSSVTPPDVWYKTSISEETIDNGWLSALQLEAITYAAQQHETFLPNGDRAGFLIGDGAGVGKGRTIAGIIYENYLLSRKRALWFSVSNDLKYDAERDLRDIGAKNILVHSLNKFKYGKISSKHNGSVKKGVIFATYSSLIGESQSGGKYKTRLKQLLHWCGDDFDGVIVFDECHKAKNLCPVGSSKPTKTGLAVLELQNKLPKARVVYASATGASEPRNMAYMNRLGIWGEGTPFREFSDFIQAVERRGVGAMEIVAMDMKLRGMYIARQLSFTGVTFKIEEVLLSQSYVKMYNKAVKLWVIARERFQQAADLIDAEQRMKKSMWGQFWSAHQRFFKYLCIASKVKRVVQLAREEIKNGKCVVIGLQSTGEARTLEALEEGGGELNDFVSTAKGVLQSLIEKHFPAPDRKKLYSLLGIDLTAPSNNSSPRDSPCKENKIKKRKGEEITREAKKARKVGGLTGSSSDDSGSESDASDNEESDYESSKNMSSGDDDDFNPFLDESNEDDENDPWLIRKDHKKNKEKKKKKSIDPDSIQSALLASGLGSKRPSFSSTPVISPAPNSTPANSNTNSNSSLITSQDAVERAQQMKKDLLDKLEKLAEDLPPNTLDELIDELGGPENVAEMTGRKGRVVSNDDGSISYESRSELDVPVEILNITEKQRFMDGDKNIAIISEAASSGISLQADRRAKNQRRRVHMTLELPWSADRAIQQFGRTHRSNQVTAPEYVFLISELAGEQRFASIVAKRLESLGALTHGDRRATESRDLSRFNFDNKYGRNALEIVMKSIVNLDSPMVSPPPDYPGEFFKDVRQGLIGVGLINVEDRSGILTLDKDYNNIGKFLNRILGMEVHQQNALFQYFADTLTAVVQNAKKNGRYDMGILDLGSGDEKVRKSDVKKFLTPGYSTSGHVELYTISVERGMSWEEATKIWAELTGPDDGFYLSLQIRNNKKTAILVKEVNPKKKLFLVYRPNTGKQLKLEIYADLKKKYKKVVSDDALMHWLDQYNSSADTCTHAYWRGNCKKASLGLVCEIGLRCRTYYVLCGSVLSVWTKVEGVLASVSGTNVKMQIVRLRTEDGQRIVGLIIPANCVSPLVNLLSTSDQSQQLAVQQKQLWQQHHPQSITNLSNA

[2] = target: T2, SBNO1-V5 (human Strawberry Notch 1, V5-tagged) (human) (UniProt A3KN83)
T2 sequence: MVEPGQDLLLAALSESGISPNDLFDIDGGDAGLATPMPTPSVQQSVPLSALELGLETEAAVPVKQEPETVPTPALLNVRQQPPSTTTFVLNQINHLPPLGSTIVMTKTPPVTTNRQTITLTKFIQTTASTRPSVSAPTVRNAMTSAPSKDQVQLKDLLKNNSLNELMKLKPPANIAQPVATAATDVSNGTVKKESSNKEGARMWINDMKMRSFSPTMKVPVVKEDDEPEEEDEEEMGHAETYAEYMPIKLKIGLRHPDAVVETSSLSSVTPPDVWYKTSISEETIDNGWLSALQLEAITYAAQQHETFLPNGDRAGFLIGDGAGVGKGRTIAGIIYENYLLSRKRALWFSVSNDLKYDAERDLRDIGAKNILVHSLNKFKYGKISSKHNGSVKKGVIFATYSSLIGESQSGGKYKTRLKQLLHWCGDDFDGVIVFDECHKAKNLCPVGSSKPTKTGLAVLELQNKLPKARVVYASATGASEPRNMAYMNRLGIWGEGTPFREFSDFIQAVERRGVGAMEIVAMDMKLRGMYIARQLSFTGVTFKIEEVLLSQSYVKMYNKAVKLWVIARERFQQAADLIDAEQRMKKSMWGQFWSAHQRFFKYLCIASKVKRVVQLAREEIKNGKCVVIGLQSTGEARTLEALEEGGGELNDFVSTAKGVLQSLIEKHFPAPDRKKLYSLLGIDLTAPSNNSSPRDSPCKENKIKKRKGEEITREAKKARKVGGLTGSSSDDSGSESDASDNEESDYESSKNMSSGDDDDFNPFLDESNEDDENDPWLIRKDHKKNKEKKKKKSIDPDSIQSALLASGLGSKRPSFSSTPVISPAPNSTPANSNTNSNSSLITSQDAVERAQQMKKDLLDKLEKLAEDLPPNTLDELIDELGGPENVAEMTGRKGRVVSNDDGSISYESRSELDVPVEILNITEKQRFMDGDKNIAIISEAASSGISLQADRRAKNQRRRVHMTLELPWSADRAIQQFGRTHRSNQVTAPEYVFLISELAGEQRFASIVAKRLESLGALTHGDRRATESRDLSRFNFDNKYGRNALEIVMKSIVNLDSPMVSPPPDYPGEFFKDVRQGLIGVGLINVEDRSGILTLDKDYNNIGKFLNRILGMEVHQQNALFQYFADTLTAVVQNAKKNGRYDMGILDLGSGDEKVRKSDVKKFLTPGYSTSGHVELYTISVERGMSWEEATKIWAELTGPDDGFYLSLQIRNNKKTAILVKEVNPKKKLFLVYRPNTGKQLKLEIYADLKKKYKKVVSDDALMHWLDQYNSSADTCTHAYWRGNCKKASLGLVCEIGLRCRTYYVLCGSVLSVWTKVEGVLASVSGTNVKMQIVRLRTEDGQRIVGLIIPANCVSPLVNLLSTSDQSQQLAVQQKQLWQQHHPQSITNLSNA

HA-mYap (mouse) = HA-mYap (mouse) (UniProt P46938)
[3] = target: T3, SBNO1-Myc (human Strawberry Notch 1, Myc-tagged) (human) (UniProt A3KN83)
T3 sequence: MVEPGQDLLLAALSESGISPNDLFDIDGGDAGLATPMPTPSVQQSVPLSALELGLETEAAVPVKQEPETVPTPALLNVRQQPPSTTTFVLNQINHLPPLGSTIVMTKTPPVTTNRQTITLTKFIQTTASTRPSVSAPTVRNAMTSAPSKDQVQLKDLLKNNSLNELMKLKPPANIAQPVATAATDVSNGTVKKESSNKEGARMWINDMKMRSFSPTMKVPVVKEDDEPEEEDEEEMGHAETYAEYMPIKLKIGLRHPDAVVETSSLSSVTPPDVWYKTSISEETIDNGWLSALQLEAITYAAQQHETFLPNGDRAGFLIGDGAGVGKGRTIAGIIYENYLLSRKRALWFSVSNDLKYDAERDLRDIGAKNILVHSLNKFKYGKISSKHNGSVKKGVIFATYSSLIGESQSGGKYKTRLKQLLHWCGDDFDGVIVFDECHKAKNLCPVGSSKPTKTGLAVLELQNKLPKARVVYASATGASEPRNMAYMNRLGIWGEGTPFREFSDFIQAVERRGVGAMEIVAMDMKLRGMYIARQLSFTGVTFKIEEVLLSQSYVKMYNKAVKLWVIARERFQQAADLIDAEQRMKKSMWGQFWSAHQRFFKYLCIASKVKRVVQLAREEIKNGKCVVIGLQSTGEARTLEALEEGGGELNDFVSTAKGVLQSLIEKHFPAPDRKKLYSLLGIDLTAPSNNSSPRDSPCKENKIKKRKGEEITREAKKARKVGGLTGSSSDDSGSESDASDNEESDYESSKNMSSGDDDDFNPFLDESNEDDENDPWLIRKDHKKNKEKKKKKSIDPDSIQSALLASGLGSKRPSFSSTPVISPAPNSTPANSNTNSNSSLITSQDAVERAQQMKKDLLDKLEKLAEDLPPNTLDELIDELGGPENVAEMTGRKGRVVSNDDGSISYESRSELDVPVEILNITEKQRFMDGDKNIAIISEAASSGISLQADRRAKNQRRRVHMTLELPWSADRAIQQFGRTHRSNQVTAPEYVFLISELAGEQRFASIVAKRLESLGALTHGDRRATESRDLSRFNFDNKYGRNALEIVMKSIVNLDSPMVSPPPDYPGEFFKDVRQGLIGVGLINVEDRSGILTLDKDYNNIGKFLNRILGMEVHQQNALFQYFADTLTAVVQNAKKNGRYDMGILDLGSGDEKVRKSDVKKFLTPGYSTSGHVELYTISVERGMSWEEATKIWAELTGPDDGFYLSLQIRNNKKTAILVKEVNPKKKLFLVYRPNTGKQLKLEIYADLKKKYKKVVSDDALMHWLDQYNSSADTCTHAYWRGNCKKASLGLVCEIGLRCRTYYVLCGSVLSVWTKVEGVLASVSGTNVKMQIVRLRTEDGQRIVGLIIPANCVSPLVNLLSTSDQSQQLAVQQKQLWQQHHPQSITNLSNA

Measured: binding

Myc-mSsrp1 (from UniProt Q08943 1-708)
binds: FLAG-mTead4 (mouse) | [1] | [2]

FLAG-mTead4 (from UniProt Q62296 1-427)
binds: HA-mYap (mouse) | [3] | [2]
